Reference: the supplement of paper PMC8732350
Structures can show the parent of a compound that is named as a salt. ± gives the standard deviation of the averaged measurements. Some of the results follow. Most values lie within the scatter of the assay; repeated measurements hardly agree.

tested on: A549; assay: surface PD-L1 immunofluorescence intensity relative to IFN-gamma-only control (ratio); higher = more PD-L1 expression; details: 10 µM; exposure time 24 h; IFN-gamma 100 ng/mL

| SMILES | surface PD-L1 immunofluorescence intensity |
| --- | --- |
| Nc1c(Br)cc(Br)cc1CN[C@H]1CC[C@H](O)CC1 [Ambroxol] | 0.974 |
| Nc1c(Br)cc(Br)cc1CN[C@H]1CC[C@H](O)CC1 [Ambroxol hydrochloride] | 1.03 ± 0.058 |
| Cn1ccnc1S [Methimazole] | 0.968 |
| Cn1ccnc1S [Methimazole (Tapazole, Northyx)] | 1.12 |
| CC1Nc2ccc(Cl)cc2S(=O)(=O)N1 (stereo not given) | 1.02 |
| CC(C)(Sc1cc(C(C)(C)C)c(O)c(C(C)(C)C)c1)Sc1cc(C(C)(C)C)c(O)c(C(C)(C)C)c1 [Probucol] | 0.9031 ± 0.0067 |
| O=C1Cc2cc(CCN3CCN(c4nsc5ccccc45)CC3)c(Cl)cc2N1 [Ziprasidone  Hydrochloride] | 0.99 |
| CC(C)/N=c1\cc2n(-c3ccc(Cl)cc3)c3ccccc3nc-2cc1Nc1ccc(Cl)cc1 [Clofazimine] | 1.01 |
| CCN[C@H]1C[C@H](C)S(=O)(=O)c2sc(S(N)(=O)=O)cc21 [Dorzolamide HCl] | 0.87 |
| CCN[C@H]1C[C@H](C)S(=O)(=O)c2sc(S(N)(=O)=O)cc21 [Dorzolamide hydrochloride] | 0.978 |
| CCOC(=O)[C@]12CC1/C(=N\O)c1ccccc1O2 (stereo not given in full) | 1.07 |
| O=c1cc(-c2ccc(O)c(O)c2)oc2cc(O)cc(O)c12 [Luteolin] | 1.07 |
| CC(=O)Nc1ccc(NC(=S)NC(=O)c2ccc(C(C)(C)C)cc2)cc1 [Tenovin-1] | 1 |
| CC(C)(C(=O)c1cccnc1)c1cccnc1 [Metyrapone] | 1.05 |
| NCCCCNCCCN [Spermidine trihydrochloride] | 0.982 |
| NCCCCNCCCN [Spermidine] | 0.999 |
| Nc1ncn([C@H]2C[C@H](O)[C@@H](CO)O2)c(=O)n1 [Decitabine] | 0.928 |
| CN1CC(=O)NC1=N [Creatinine] | 1 |
| CSCC[C@H](NC=O)C(=O)N[C@@H](CC(=O)O)C(=O)NCC(=O)N[C@@H](CS)C(=O)N[C@@H](CCC(=O)O)C(=O)N[C@@H](CC(C)C)C(=O)O | 1 |
| CCC(Cc1c(I)cc(I)c(N)c1I)C(=O)O (stereo not given) [Iopanoic acid] | 1.02 |
| CCC(NC(C)C)C(O)c1ccc(O)c(O)c1 (stereo not given) [Isoetharine mesylate salt] | 0.993 |
| CN1C2=CC(=O)/C(=N\NC(N)=O)C=C2CC1S(=O)(=O)O (stereo not given) [Carbazochrome sodium sulfonate] | 0.963 |
| CNC(CC(=O)O)C(=O)O [NMDA (N-Methyl-D-aspartic acid)] | 1 |
| CC(=O)OCCNC(=O)c1cccnc1 [N-[2-(Acetoxy)ethyl]-3-pyridinecarboxamide] | 0.95 |
| C[C@H](NC(=O)Cc1cc(F)cc(F)c1)C(=O)N[C@H](C(=O)OC(C)(C)C)c1ccccc1 | 1.04 |

| SMILES | surface PD-L1 immunofluorescence intensity |
| --- | --- |
| CN1CCc2cccc3c2[C@H]1Cc1ccc(O)c(O)c1-3 [(R)-(-)-Apomorphine hydrochloride] | 1.03 |
| CN1CCN(C2=Cc3ccccc3Oc3ccc(Cl)cc32)CC1 | 1.06 |
| C[C@H](NC(=O)[C@@H](O)c1cc(F)cc(F)c1)C(=O)N[C@@H]1C(=O)N(C)c2ccccc2-c2ccccc21 | 1.04 |
| CO[C@@]1(NC(=O)CSCC#N)C(=O)N2C(C(=O)O)=C(CSc3nnnn3C)CS[C@@H]21 [Cefmetazole sodium salt] | 1.04 |
| C[C@@H]1[C@H](O)[C@@H](C)/C=C/C=C/C=C/C=C/C=C/C=C/C=C/[C@H](O[C@@H]2O[C@H](C)[C@@H](O)[C@H](N)[C@@H]2O)C[C@@H]2O[C@](O)(C[C@@H](O)C[C@@H](O)[C@H](O)CC[C@@H](O)C[C@@H](O)CC(=O)O[C@H]1C)C[C@H](O)[C@H]2C(=O)O [Amphotericin B] | 1.02 |
| COc1ccc2[nH]c(I)c(CCNC(C)=O)c2c1 [2-Iodomelatonin] | 1.09 |
| CCOC(=O)C(C)(C)Oc1ccc(Cl)cc1 [Clofibrate] | 1.12 |
| O=c1cc(N2CCOCC2)oc2c1ccc1ccccc12 | 1.03 |
| CC(C)NC[C@H](O)COc1ccc(CC(N)=O)cc1 [(S)-(-)-Atenolol] | 0.95 |
| CC(C)NC[C@H](O)COc1ccc(CC(N)=O)cc1 [S-(-)-Atenolol] | 0.99 |
| C[C@@H]1NC(=O)NC1=O [Methylhydantoin-5-(L)] | 1.08 |
| CC[C@H](C)[C@H](N)C1=N[C@H](C(=O)N[C@@H](CC(C)C)C(=O)N[C@H](CCC(=O)[O-])C(=O)N[C@H](C(=O)N[C@H]2CCCCNC(=O)[C@H](CC(N)=O)NC(=O)[C@@H](CC(=O)[O-])NC(=O)[C@H](Cc3cnc[nH]3)NC(=O)[C@@H](Cc3ccccc3)NC(=O)[C@H]([C@@H](C)CC)NC(=O)[C@@H](CCCN)NC2=O)[C@@H](C)CC)CS1.[Zn+2] [Bacitracin zinc] | 1.06 |
| O=C(O)c1ccccc1Nc1ccccc1 [N-phenylanthranilic acid] | 0.94 |
| CCCCCCCCCCCCCCCC(=O)NCCO [Palmitoylethanolamide] | 0.904 |
| CN1CCN(C2=Nc3cc(Cl)ccc3Nc3ccccc32)CC1 [Clozapine] | 0.987 ± 0.14 |
| Clc1ccc(COC(Cn2ccnc2)c2ccc(Cl)cc2Cl)c(Cl)c1 (stereo not given) [Miconazole] | 0.912 |
| CC(C)[C@@H](O)CC[C@@H](C)[C@H]1CC[C@H]2[C@@H]3CC=C4C[C@@H](O)CC[C@]4(C)[C@H]3CC[C@]12C [24(S)-Hydroxycholesterol] | 1.09 |
| NC12CC3CC(CC(C3)C1)C2 [Adamantamine fumarate] | 0.982 |
| Cc1[nH]c2ccccc2c1C(Nc1ccccn1)c1ccc(Cl)cc1 (stereo not given) | 1.11 |
| CO[C@H]1O[C@@H]2O[C@@]3(C)CC[C@H]4[C@H](C)CC[C@@H]([C@H]1C)[C@@]24OO3 [Artemether (SM-224)] | 1.04 |
| O=c1c2ccccc2oc2ccccc12 [Xanthone (Genicide)] | 1.16 |
| CC1(C2CCCC2)Cc2cc(OCC(=O)O)c(Cl)c(Cl)c2C1=O (stereo not given) | 1.03 |
| Cc1ccc(-c2ncc(Cl)cc2-c2ccc(S(C)(=O)=O)cc2)cn1 [Etoricoxib] | 0.959 |
| CC1(C)C(=O)NC2=C1C(=O)C(=O)c1ccccc12 | 1.11 |
| CCCc1c(OCCCCc2nnn[nH]2)ccc(C(C)=O)c1O | 1.06 |

Not a retest: an excerpt of the list.

| SMILES | surface PD-L1 immunofluorescence intensity |
| --- | --- |
| CCC(Cc1c(I)cc(I)c(N)c1I)C(=O)O (stereo not given) [Iopanoic acid] | 1.02 |
| CCC(NC(C)C)C(O)c1ccc(O)c(O)c1 (stereo not given) [Isoetharine mesylate salt] | 0.993 |
| CN1C2=CC(=O)/C(=N\NC(N)=O)C=C2CC1S(=O)(=O)O (stereo not given) [Carbazochrome sodium sulfonate] | 0.963 |
| CNC(CC(=O)O)C(=O)O [NMDA (N-Methyl-D-aspartic acid)] | 1 |
| CC(=O)OCCNC(=O)c1cccnc1 [N-[2-(Acetoxy)ethyl]-3-pyridinecarboxamide] | 0.95 |
| C[C@H](NC(=O)Cc1cc(F)cc(F)c1)C(=O)N[C@H](C(=O)OC(C)(C)C)c1ccccc1 | 1.04 |
| CN1CCc2cccc3c2[C@H]1Cc1ccc(O)c(O)c1-3 [(R)-(-)-Apomorphine hydrochloride] | 1.03 |
| CN1CCN(C2=Cc3ccccc3Oc3ccc(Cl)cc32)CC1 | 1.06 |
| C[C@H](NC(=O)[C@@H](O)c1cc(F)cc(F)c1)C(=O)N[C@@H]1C(=O)N(C)c2ccccc2-c2ccccc21 | 1.04 |
| CO[C@@]1(NC(=O)CSCC#N)C(=O)N2C(C(=O)O)=C(CSc3nnnn3C)CS[C@@H]21 [Cefmetazole sodium salt] | 1.04 |
| C[C@@H]1[C@H](O)[C@@H](C)/C=C/C=C/C=C/C=C/C=C/C=C/C=C/[C@H](O[C@@H]2O[C@H](C)[C@@H](O)[C@H](N)[C@@H]2O)C[C@@H]2O[C@](O)(C[C@@H](O)C[C@@H](O)[C@H](O)CC[C@@H](O)C[C@@H](O)CC(=O)O[C@H]1C)C[C@H](O)[C@H]2C(=O)O [Amphotericin B] | 1.02 |
| COc1ccc2[nH]c(I)c(CCNC(C)=O)c2c1 [2-Iodomelatonin] | 1.09 |
